Experimental data: PubChem BioAssay AID493246 (Drosophila RNAi Screening Center, 2011)

- Test: 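Identify essential fly genes by loss of cell viability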 (primary screen)
- System: Drosophila Kc and S2R+ cells
- Knock-down reagent: long dsRNA against Drosophila genes
- Measured: 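Cell number per well after knock-down, printed as raw plate values; calls were based on per-plate z-scores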
- Reading the numbers: Kc cell number and S2R+ cell number: higher = more cells remaining
- Active means: 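Active when the per-plate z-score of cell number is 3 or more in the direction of fewer cells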
In all, the deposit lists about 21,000 reagents; below is an unselected part of those that have a named target and a result. Of all reagents, 429 (2%) got an active call. 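Values are raw and not normalised between plates; calls rest on per-plate z-scores that were not deposited.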 The numbers tell different reagents against one gene apart. Names joined by + are all predicted targets of the reagent. The record does not give: the amount of reagent, the time to read-out.

Gene | dsRNA no. | Kc cell number, rep 1 | Kc cell number, rep 2 | S2R+ cell number, rep 1 | S2R+ cell number, rep 2 | Outcome
Cpr67Fb (Cuticular protein 67Fb) | 1 | 1.28e6 | 1.43e6 | 1.19e6 | 1.27e6 | inactive
Idh3b (Isocitrate dehydrogenase 3b) | 1 | 1.66e6 | 1.80e6 | 1.16e6 | 1.27e6 | inactive
CG13064 | 1 | 1.39e6 | 1.54e6 | 1.34e6 | 1.44e6 | inactive
UQCR-14L (Ubiquinol-cytochrome c reductase 14 kDa subunit-like) | 1 | 1.57e6 | 1.56e6 | 1.03e6 | 1.19e6 | inactive
18w (18 wheeler) | 1 | 1.33e6 | 1.40e6 | 1.23e6 | 1.24e6 | inactive
Acp95EF (Accessory gland protein 95EF) | 1 | 1.80e6 | 1.70e6 | 1.03e6 | 1.17e6 | inactive
RpL36A (Ribosomal protein L36A) | 1 | 1.23e6 | 1.32e6 | 7.35e5 | 8.39e5 | active
CG31659 | 1 | 1.56e6 | 1.57e6 | 1.08e6 | 1.22e6 | inactive
Spx (Spliceosomal protein on the X) | 1 | 1.20e6 | 1.30e6 | 6.98e5 | 7.91e5 | inactive
CtsK2 (Cathepsin K2) | 1 | 1.33e6 | 1.38e6 | 1.17e6 | 1.13e6 | inactive
Tmtc2 (Transmembrane O-mannosyltransferase targeting cadherins 2) | 1 | 1.34e6 | 1.36e6 | 7.73e5 | 9.01e5 | inactive
CG30496 | 1 | 1.42e6 | 1.61e6 | 1.10e6 | 9.99e5 | inactive
Pak3 | 1 | 1.52e6 | 1.56e6 | 1.11e6 | 1.13e6 | inactive
Trax (Translin associated factor X) | 1 | 1.58e6 | 1.68e6 | 1.23e6 | 1.32e6 | inactive
nis | 1 | 1.54e6 | 1.52e6 | 9.99e5 | 1.06e6 | inactive
mRpL32 (mitochondrial ribosomal protein L32) | 1 | 1.52e6 | 1.47e6 | 9.54e5 | 1.09e6 | inactive
CG13031 | 1 | 1.28e6 | 1.58e6 | 1.34e6 | 1.45e6 | inactive
CG14646 | 1 | 1.38e6 | 1.44e6 | 1.07e6 | 1.23e6 | inactive
GXIVsPLA2 | 1 | 1.48e6 | 1.50e6 | 1.33e6 | 1.38e6 | inactive
CG9609 | 1 | 1.57e6 | 1.65e6 | 1.08e6 | 1.26e6 | inactive
Prx4 (Peroxiredoxin 4) | 1 | 1.54e6 | 1.43e6 | 1.16e6 | 1.39e6 | inactive
CG6834 | 1 | 1.63e6 | 1.67e6 | 1.25e6 | 1.34e6 | inactive
CG30103 | 1 | 1.50e6 | 1.62e6 | 1.15e6 | 1.27e6 | inactive
Eato (Engulfment ABC Transporter in the ovary) | 1 | 1.50e6 | 1.61e6 | 1.16e6 | 1.14e6 | inactive
Eato (Engulfment ABC Transporter in the ovary) | 2 | 1.54e6 | 1.61e6 | 1.21e6 | 1.32e6 | inactive
MRP (Multidrug-Resistance like Protein 1) | 1 | 1.53e6 | 1.56e6 | 1.13e6 | 1.27e6 | inactive
wg (wingless) | 1 | 1.63e6 | 1.68e6 | 1.28e6 | 1.44e6 | inactive
Grx5 (Glutaredoxin 5) | 1 | 1.83e6 | 1.86e6 | 1.11e6 | 1.29e6 | inactive
CheB93a (Chemosensory protein B 93a) | 1 | 1.35e6 | 1.40e6 | 1.02e6 | 1.12e6 | inactive
zip (zipper) | 1 | 1.22e6 | 1.22e6 | 1.07e6 | 1.17e6 | inactive
Nubp2 (NUBP iron-sulfur cluster assembly factor 2) | 1 | 1.58e6 | 1.70e6 | 1.47e6 | 1.57e6 | inactive
wrm1 (wurmchen 1) | 1 | 1.40e6 | 1.44e6 | 1.25e6 | 1.19e6 | inactive
CG17163 | 1 | 1.79e6 | 1.79e6 | 1.19e6 | 1.37e6 | inactive
shot (short stop) | 1 | 1.45e6 | 1.43e6 | 8.83e5 | 1.02e6 | inactive
shot (short stop) | 2 | 1.42e6 | 1.38e6 | 9.65e5 | 1.12e6 | inactive
shot (short stop) | 3 | 1.39e6 | 1.42e6 | 1.04e6 | 1.13e6 | inactive
CG7551 | 1 | 1.27e6 | 1.35e6 | 1.28e6 | 1.33e6 | inactive
Indy (I'm not dead yet) | 1 | 1.58e6 | 1.57e6 | 1.24e6 | 1.29e6 | inactive
CG2267 | 1 | 1.42e6 | 1.40e6 | 1.01e6 | 1.09e6 | inactive
ltl (larval translucida) | 1 | 1.42e6 | 1.36e6 | 1.09e6 | 1.20e6 | inactive
ltl (larval translucida) | 2 | 1.38e6 | 1.35e6 | 1.14e6 | 1.21e6 | inactive
Pk34A (Protein kinase at 34A) | 1 | 1.68e6 | 1.67e6 | 1.29e6 | 1.51e6 | inactive
Dnz1 (DNZDHHC/NEW1 zinc finger protein 11) | 1 | 1.31e6 | 1.40e6 | 1.12e6 | 1.14e6 | inactive
CG10086 | 1 | 1.53e6 | 1.68e6 | 1.13e6 | 1.22e6 | inactive
PolrMT (RNA polymerase mitochondrial) | 1 | 1.23e6 | 1.25e6 | 9.62e5 | 1.02e6 | inactive
fal (falten) | 1 | 1.72e6 | 1.74e6 | 1.56e6 | 1.65e6 | inactive
CG3339 | 1 | 1.00e6 | 1.37e6 | 1.06e6 | 1.01e6 | inactive
CG3339 | 2 | 1.65e6 | 1.68e6 | 1.08e6 | 1.19e6 | inactive
gpp (grappa) | 1 | 1.57e6 | 1.61e6 | 1.10e6 | 1.35e6 | inactive
gpp (grappa) | 2 | 1.58e6 | 1.72e6 | 1.04e6 | 1.20e6 | inactive
CG7945 + yellow-k | 1 | 1.67e6 | 1.61e6 | 1.21e6 | 1.38e6 | inactive
CG17167 | 1 | 1.73e6 | 1.76e6 | 1.15e6 | 1.33e6 | inactive
CG17167 | 2 | 1.80e6 | 1.78e6 | 1.15e6 | 1.35e6 | inactive
Obp56a (Odorant-binding protein 56a) | 1 | 1.53e6 | 1.60e6 | 1.12e6 | 1.26e6 | inactive
CG14537 | 1 | 1.58e6 | 1.53e6 | 1.22e6 | 1.34e6 | inactive
fz2 (frizzled 2) | 1 | 1.49e6 | 1.57e6 | 1.17e6 | 1.25e6 | inactive
fz2 (frizzled 2) | 2 | 1.45e6 | 1.53e6 | 1.05e6 | 1.19e6 | inactive
fz2 (frizzled 2) | 3 | 1.55e6 | 1.64e6 | 1.29e6 | 1.39e6 | inactive
drk (downstream of receptor kinase) | 1 | 1.06e6 | 1.07e6 | 9.18e5 | 9.72e5 | inactive
ND-PDSW (NADH dehydrogenase (ubiquinone) PDSW subunit) | 1 | 1.25e6 | 1.29e6 | 7.63e5 | 7.95e5 | inactive
TM4SF (Transmembrane 4 superfamily) | 1 | 1.39e6 | 1.48e6 | 1.02e6 | 8.94e5 | inactive
mah (mahogany) | 1 | 1.81e6 | 1.71e6 | 1.03e6 | 1.19e6 | inactive
lok (loki) | 1 | 1.40e6 | 1.47e6 | 1.39e6 | 1.42e6 | inactive
CG31441 | 1 | 1.77e6 | 1.84e6 | 1.38e6 | 1.50e6 | inactive
CG1824 | 1 | 1.58e6 | 1.51e6 | 1.02e6 | 1.14e6 | inactive
cN-IIIB (cytosolic 5'-nucleotidase IIIB) | 1 | 1.31e6 | 1.43e6 | 1.17e6 | 1.21e6 | inactive
mRpL41 (mitochondrial ribosomal protein L41) | 1 | 1.49e6 | 1.51e6 | 1.06e6 | 1.17e6 | inactive
RabX6 | 1 | 1.32e6 | 9.21e5 | 1.32e6 | 1.29e6 | inactive
CG4806 | 1 | 1.61e6 | 1.75e6 | 1.18e6 | 1.42e6 | inactive
CG31233 | 1 | 1.38e6 | 1.34e6 | 1.02e6 | 1.10e6 | inactive
mRpL33 (mitochondrial ribosomal protein L33) | 1 | 1.46e6 | 1.43e6 | 9.29e5 | 1.05e6 | inactive
Mst98Cb (Male-specific RNA 98Cb) | 1 | 1.32e6 | 1.32e6 | 1.00e6 | 1.17e6 | inactive
CG10418 | 1 | 1.41e6 | 1.56e6 | 1.32e6 | 1.38e6 | inactive
Sara (Smad anchor for receptor activation) | 1 | 1.42e6 | 1.50e6 | 1.22e6 | 3.30e5 | inactive
Cyp9b1 (Cytochrome P450 9b1) | 1 | 1.49e6 | 1.54e6 | 1.21e6 | 1.30e6 | inactive

Already shown: 8 of the entries above.
Gene | dsRNA no. | Kc cell number, rep 1 | Kc cell number, rep 2 | S2R+ cell number, rep 1 | S2R+ cell number, rep 2 | Outcome
TM4SF (Transmembrane 4 superfamily) | 1 | 1.39e6 | 1.48e6 | 1.02e6 | 8.94e5 | inactive
mah (mahogany) | 1 | 1.81e6 | 1.71e6 | 1.03e6 | 1.19e6 | inactive
lok (loki) | 1 | 1.40e6 | 1.47e6 | 1.39e6 | 1.42e6 | inactive
CG31441 | 1 | 1.77e6 | 1.84e6 | 1.38e6 | 1.50e6 | inactive
CG1824 | 1 | 1.58e6 | 1.51e6 | 1.02e6 | 1.14e6 | inactive
cN-IIIB (cytosolic 5'-nucleotidase IIIB) | 1 | 1.31e6 | 1.43e6 | 1.17e6 | 1.21e6 | inactive
mRpL41 (mitochondrial ribosomal protein L41) | 1 | 1.49e6 | 1.51e6 | 1.06e6 | 1.17e6 | inactive
RabX6 | 1 | 1.32e6 | 9.21e5 | 1.32e6 | 1.29e6 | inactive
